Data reported in patent US20120028988A1, “USE OF PYRIDAZINONE COMPOUND FOR CONTROL OF HARMFUL ARTHROPOD PESTS” (SUMITOMO CHEMICAL COMPANY, LIMITED, priority 2009, published 2012).
Some results were stated once for a whole list of compounds, not compound by compound. Some ranges recur; such a range may be that of the whole group of compounds.

Legend:
Type in all cases: in vivo
Nilaparvata lugens = assay: Test Example 3: spray on rice seedling, Nilaparvata lugens larvae, preventive value; conditions: 500 ppm active ingredient, 10 mL sprayed on rice seedling; first-instar larvae; 25° C., after 6 days
Aphis gossypii = assay: Test Example 4: spray on cucumber seedling inoculated with Aphis gossypii, preventive value; conditions: 500 ppm active ingredient, 10 mL sprayed on cucumber seedling 1 day after inoculation; 5 days after spraying
Adoxophyes orana = assay: Test Example 2: treated artificial diet (SilkMate 2S), Adoxophyes orana larvae, insecticidal index; conditions: 500 ppm active ingredient, 1 mL on SilkMate 2S; first-instar larvae; 25° C., after 7 days
Tetranychus urticae = assay: Test Example 5: spray on Phaseolus vulgaris seedling inoculated with Tetranychus urticae, preventive rate; conditions: 500 ppm active ingredient, 30 mL sprayed on Phaseolus vulgaris seedling 1 day after inoculation of female adults; 8 days after spraying
Bemisia tabaci = assay: Test Example 9: spray on tomato seedling with Bemisia tabaci larvae, preventive value; conditions: 500 ppm active ingredient, 10 ml/cup sprayed on tomato seedling when larvae hatched; 25° C., after 7 days
Culex pipiens pallens = assay: Test Example 7: Culex pipiens pallens last instar larvae in diluted drug solution, mortality index; conditions: 0.7 mL of 500 ppm drug solution diluted with ion exchanged water to 100 mL, after 1 day

Row | SMILES | preventive value (Nilaparvata lugens) | preventive value (Aphis gossypii) | further results
1 | Cc1ccc(-c2ccc(C)c(-c3c(O)c(C)nn(C)c3=O)c2)cc1 [I-a-56] | ≥ 90% | ≥ 90% | 
2 | Cc1ccc(-c2ccc(Cl)cc2)cc1-c1c(O)cnn(C)c1=O [I-a-59, 4-[5-(4-chlorophenyl)-2-methylphenyl]-5-hydroxy-2-methyl-3(2H)-pyridazinone] | ≥ 90% | ≥ 90% | insecticidal index (Adoxophyes orana): 3 (80 to 99%); preventive rate (Tetranychus urticae): ≥ 90%
3 | Cc1ccc(Br)cc1-c1c(O)c(C)nn(C)c1=O [I-a-45, 4-(5-bromo-2-methylphenyl)-5-hydroxy-2,6-dimethyl-3(2H)-pyridazinone] |  |  | preventive value (Bemisia tabaci): ≥ 90%
4 | CCc1ccc(-c2ccc(Cl)cc2)cc1-c1c(OC(=O)OC)c(C)nn(C)c1=O [I-b-62] |  | ≥ 90% | insecticidal index (Adoxophyes orana): 3 (80 to 99%)
5 | CCc1cc(C)c(-c2ccc(Cl)cc2)c(CC)c1-c1c(O)c(C)nn(C)c1=O [I-a-48, 4-[3-(4-chlorophenyl)-2,6-diethyl-4-methylphenyl)-5-hydroxy-2,6-dimethyl-3(2H)-pyridazinone] | ≥ 90% | ≥ 90% | preventive rate (Tetranychus urticae): ≥ 90%
6 | CCc1cc(C)cc(CC)c1-c1c(O)c(C)nn(C)c1=O [I-a-14, 4-(2,6-diethyl-4-methylphenyl)-5-hydroxy-2,6-dimethyl-3(2H)-pyridazinone] |  |  | index (mortality) (Culex pipiens pallens): 4 (mortality 91 to 100%)
7 | Cc1cc(C)c(-c2c(O)cnn(C)c2=O)c(C)c1 [I-a-10] | ≥ 90% | ≥ 90% | 
8 | Cc1ccc(-c2cccc(Cl)c2)cc1-c1c(O)c(C)nn(C)c1=O [I-a-51] | ≥ 90% |  | 
9 | Cc1cc(C)c(-c2c(O)c(C)nn(C)c2=O)c(C)c1 [I-a-13] |  |  | preventive rate (Tetranychus urticae): ≥ 90%
10 | CCc1cc(C)cc(CC)c1-c1c(O)c(C(C)C)nn(C)c1=O [I-a-23] |  |  | insecticidal index (Adoxophyes orana): 3 (80 to 99%)
11 | Cc1ccc(C)c(-c2c(O)c(C)nn(C)c2=O)c1 [I-a-62] | ≥ 90% |  | 
12 | CCc1ccccc1-c1c(O)c(C)nn(C)c1=O [I-a-15] | ≥ 90% |  | 
13 | CCc1ccccc1-c1c(O)cnn(C(C)C)c1=O [I-a-3] |  | ≥ 90% | 
14 | Cc1ccc(-c2ccc(F)cc2)cc1-c1c(O)c(C)nn(C)c1=O [I-a-46, 4-[5-(4-fluorophenyl)-2-methylphenyl]-5-hydroxy-2,6-dimethyl-3(2 H)-pyridazinone] | ≥ 90% | ≥ 90% | preventive rate (Tetranychus urticae): ≥ 90%; index (mortality) (Culex pipiens pallens): 4 (mortality 91 to 100%); preventive value (Bemisia tabaci): ≥ 90%
